Data reported in patent US20240239894A1, “THERAPEUTIC BINDING MOLECULES” (MedImmune Limited, priority 2020, published 2024).
These are yes or no findings as the source states them, for the method shown.

B1: ZY0EO5-E07 human IgG1-TM (antibody, V domains shown)
VH: QVQLQESGPGLVKPSQTLSLTCTVSGGSISSGGYYWSWIRQHPGKGLEWIGNIYYSGSTYYNPSLKSRVTISVDTSKNQFSLKLSSVTAADTAVYYCAREKALASVIPSGYENYYVVDVWGQGTTVTVSS
VL: DIQLTQSPSFLSASVGGRVTITCWASQGIAGYLAWYQQKPGKAPKLLIYAASTLQSGVPSRFSGSGSGTEFTLTISSLQPEDFATYYCQHLNSYPLTFGGGTKVEIK
B2: ZY0EP0-C07 murine IgG1 (antibody, V domains shown)
VH: QVQLVESGGVLVKPGGSLRLSCAASGFTLSDYYMSWIRQAPGMGLEWVSYISSSGSTIYYTDSVKGRFTISRDSAKNSLYLQMNSLRAEDTAVYYCARDGVGFDYWGQGTLVTVSS
VL: EIVLTQSPGTLSLFPGERATLSCRASQSVSSSYLAWYQQKPGQSPRLLIYAASSRATGIPDRFSGSGSGTDFTLTISRLEPEDFAVYYCQQYGSSPLYTFGQGTKLEIK
B3: ZY0EP0-C07 human IgG1-TM (antibody, V domains shown)
VH: QVQLVESGGVLVKPGGSLRLSCAASGFTLSDYYMSWIRQAPGMGLEWVSYISSSGSTIYYTDSVKGRFTISRDSAKNSLYLQMNSLRAEDTAVYYCARDGVGFDYWGQGTLVTVSS
VL: EIVLTQSPGTLSLFPGERATLSCRASQSVSSSYLAWYQQKPGQSPRLLIYAASSRATGIPDRFSGSGSGTDFTLTISRLEPEDFAVYYCQQYGSSPLYTFGQGTKLEIK
B4: ZY0EPQ-E02 murine IgG1 (antibody, V domains shown)
VH: QVQLQQWGAGLLKPSETLSLTCAVYGGSFSGYYWNWIRQPPGKGLEWIGEINHSGSTNYNPSLKSRVTILVDTSKNQFSLKLSSVTAADTAVYYCARNLYNWNLDSWGQGTLVTVSS
VL: DIQMTQSPSSLSASVGDRVTITCRASQGIRNDLGWYQQKPGRAPKRLIYVASSLQSGVPSRFSGSGSGTEFTLTISSLQPEDFATYYCLQHNSYPRTFGQGTKVEIK
B5: ZY0EPQ-E02 human IgG1-TM (antibody, V domains shown)
VH: QVQLQQWGAGLLKPSETLSLTCAVYGGSFSGYYWNWIRQPPGKGLEWIGEINHSGSTNYNPSLKSRVTILVDTSKNQFSLKLSSVTAADTAVYYCARNLYNWNLDSWGQGTLVTVSS
VL: DIQMTQSPSSLSASVGDRVTITCRASQGIRNDLGWYQQKPGRAPKRLIYVASSLQSGVPSRFSGSGSGTEFTLTISSLQPEDFATYYCLQHNSYPRTFGQGTKVEIK
B6: ZY0EQD-E02 murine IgG1 (antibody, V domains shown)
VH: QVQLQQWGAGLLKPSETLSLTCAVYGGSFSGYYWNWIRQPPGKGLEWIGEINHSGSTSYNPSLKSRVTISVDTSKNQFSLKLSSVTAADTAVYYCARVLYNWNVDSWGQGTLVTVSS
VL: DIQMTQSPSSLSASVGDRVTITCRASQDIRNDVGWYQQKPGKAPKRLIYAASRLQSGVPSRFSGSGSGTEFTLTISSLQPEDFATYYCLQHNSYPRTFGQGTKVEIK
B7: ZY0EQD-E02 human IgG1-TM (antibody, V domains shown)
VH: QVQLQQWGAGLLKPSETLSLTCAVYGGSFSGYYWNWIRQPPGKGLEWIGEINHSGSTSYNPSLKSRVTISVDTSKNQFSLKLSSVTAADTAVYYCARVLYNWNVDSWGQGTLVTVSS
VL: DIQMTQSPSSLSASVGDRVTITCRASQDIRNDVGWYQQKPGKAPKRLIYAASRLQSGVPSRFSGSGSGTEFTLTISSLQPEDFATYYCLQHNSYPRTFGQGTKVEIK
B8: ZY0EOB-F05 murine IgG1 (antibody, V domains shown)
VH: QVQLQESGPGLVKPSQTLSLTCTVSDGSISSGGYYWSWIRQHPGKGLEWIGNIYYSGSTYYNPSLKSRVTISVDTSKNQFSLKLNSVTAADTAVYYCATEKALATVTPSGYENYYTVDVWGQGTTVTVSS
VL: DIQLTQSPSFLSASVGDRVTITCWASQGISSYLAWYQQKPGKAPKLLIYAASTLQSGVPSRFSGSGSGTEFTLTISSLQPEDFATYYCQHLNSYPLTFGGGTKVEIK
B9: ZY0EOB-F05 human IgG1-TM (antibody, V domains shown)
VH: QVQLQESGPGLVKPSQTLSLTCTVSDGSISSGGYYWSWIRQHPGKGLEWIGNIYYSGSTYYNPSLKSRVTISVDTSKNQFSLKLNSVTAADTAVYYCATEKALATVTPSGYENYYTVDVWGQGTTVTVSS
VL: DIQLTQSPSFLSASVGDRVTITCWASQGISSYLAWYQQKPGKAPKLLIYAASTLQSGVPSRFSGSGSGTEFTLTISSLQPEDFATYYCQHLNSYPLTFGGGTKVEIK
B10: ZY0EO5-E07 murine IgG1 (antibody, V domains shown)
VH: QVQLQESGPGLVKPSQTLSLTCTVSGGSISSGGYYWSWIRQHPGKGLEWIGNIYYSGSTYYNPSLKSRVTISVDTSKNQFSLKLSSVTAADTAVYYCAREKALASVIPSGYENYYVVDVWGQGTTVTVSS
VL: DIQLTQSPSFLSASVGGRVTITCWASQGIAGYLAWYQQKPGKAPKLLIYAASTLQSGVPSRFSGSGSGTEFTLTISSLQPEDFATYYCQHLNSYPLTFGGGTKVEIK

biological target: huMOG1 (human); assay: ELISA

binding, no binding:
B1
B2
B3
B4
B5
B6
B7
B8
B9
B10
